# Test results taken from patent US20230322769A1, “HETEROAROMATIC RING COMPOUND AS RET KINASE INHIBITOR, AND PREPARATION AND USE THEREOF” (JIANGSU CHIA TAI FENGHAI PHARMACEUTICAL CO., LTD., priority 2020, published 2023).
# At least one structure is not confirmed: it was looked up by name or label, or the drawing left a doubt.
# Test system: BA/F3 KIF5B-RET graft tumor
# Experiment: Mouse subcutaneous BA/F3 KIF5B-RET graft tumor model
# Type: in vivo
smiles,measurement,setting,value
[2H]C([2H])([2H])N1CCN(c2cc(-c3ccc(N4CC5CC(C4)N5Cc4ccc(OC)nc4)nc3)c3c(C#N)cnn3c2)CC1 [Compound 94],Graft tumor size compared with Loxo-292 groups,"after 15 days of administration, all dose groups",smaller mouse graft tumors
same,Inhibitory activity against tumors when administered once daily,q.d. dosing,good inhibitory activity against tumors
